Laboratory results: the supplement of paper PMC6331611
± gives the standard deviation of the averaged measurements. Whole data set: some 1,600 compounds, median “normalized intracellular growth (luminescence, IQM-normalized) in RAW264.7 macrophages” near 1, cut for the lowest 2% near 0.43. This is one part of the list.

Test system: Salmonella enterica serovar Typhimurium SL1344
Assay: normalized intracellular growth (luminescence, IQM-normalized) in RAW264.7 macrophages (fraction of plate interquartile mean); higher = more bacterial growth (less inhibition)
Details: 10 µM

Structure (SMILES) | normalized intracellular growth (time point: T3 (3 h)) | normalized intracellular growth (time point: Tfinal (~6 h))
CCCc1cc(=O)[nH]c(=S)[nH]1 | 0.99 ± 0.023 | 0.917 ± 0.3
COc1ccc(CCN(C)CCCC(C#N)(c2ccc(OC)c(OC)c2)C(C)C)cc1OC (stereo unspecified) | 0.973 ± 0.015 | 1.15 ± 0.084
CO/N=C(\C(=O)N[C@@H]1C(=O)N2C(C(=O)OCOC(=O)C(C)(C)C)=C(/C=C\c3scnc3C)CS[C@H]12)c1csc(N)n1 | 0.923 ± 0.047 | 0.0689 ± 0.074
CN(N=O)C(=O)N[C@H]1C(O)O[C@H](CO)[C@@H](O)[C@@H]1O (mixture of isomers) | 1.02 ± 0.08 | 1.02 ± 0.1
Oc1ncnc2[nH]ncc12 | 0.995 ± 0.024 | 1.07 ± 0.1
CNCCCC1c2ccccc2C=Cc2ccccc21 | 0.961 ± 0.051 | 1.12 ± 0.42
CCOC(=O)C1=C[C@@H](OC(CC)CC)[C@H](NC(C)=O)[C@@H](N)C1 | 1.01 ± 0.021 | 1.33 ± 0.15
C[C@]12CCC(=O)C=C1CC[C@@H]1[C@@H]2[C@@H](O)C[C@@]2(C)[C@H]1CC[C@]2(O)C(=O)CO | 1.03 ± 0.02 | 0.987 ± 0.039
CN[C@@H]1[C@H](O[C@H]2[C@H](O[C@H]3[C@H](O)[C@@H](O)[C@H](N=C(N)N)[C@@H](O)[C@@H]3N=C(N)N)O[C@@H](C)[C@]2(O)C=O)O[C@@H](CO)[C@H](O)[C@H]1O | 0.962 ± 0.035 | 1 ± 0.049
Cc1ccc2c(Br)cc(Br)c(OC(=O)c3ccccc3)c2n1 | 0.944 ± 0.025 | 1.01 ± 0.097
Cc1cccc(C(=O)O)c1O | 1.02 ± 0.085 | 0.949 ± 0.16
OCCOCCN1CCN(C2=Nc3ccccc3Sc3ccccc32)CC1 | 0.961 ± 0.03 | 1.03 ± 0.14
CC1(C)S[C@@H]2[C@H](NC(=O)[C@H](N)c3ccc(O)cc3)C(=O)N2[C@H]1C(=O)O | 0.977 ± 0.028 | 0.937 ± 0.094
COc1cccc2c1C(=O)c1c(O)c3c(c(O)c1C2=O)C[C@@](O)(C(=O)CO)C[C@@H]3O[C@H]1C[C@H](N)[C@H](O)[C@H](C)O1 | 1.06 ± 0.09 | 1.17 ± 0.16
CCCCC(=O)O[C@H]1CC[C@H]2[C@@H]3CCc4cc(O)ccc4[C@H]3CC[C@]12C | 1.19 ± 0.18 | 1.28 ± 0.099
O=C(OC[C@H]1O[C@@H](OC(=O)c2cc(O)c(O)c(OC(=O)c3cc(O)c(O)c(O)c3)c2)[C@H](OC(=O)c2cc(O)c(O)c(OC(=O)c3cc(O)c(O)c(O)c3)c2)[C@@H](OC(=O)c2cc(O)c(O)c(OC(=O)c3cc(O)c(O)c(O)c3)c2)[C@@H]1OC(=O)c1cc(O)c(O)c(OC(=O)c2cc(O)c(O)c(O)c2)c1)c1cc(O)c(O)c(OC(=O)c2cc(O)c(O)c(O)c2)c1 | 1.07 ± 0.076 | 1.04 ± 0.059
Fc1ccc(C(c2ccc(F)cc2)N2CCN(C/C=C/c3ccccc3)CC2)cc1 | 1.21 ± 0.077 | 1.41 ± 0.075
CN1CCc2c(c3ccccc3n2Cc2ccccc2)C1 | 0.974 ± 0.023 | 1.69 ± 0.3
Cc1ccc(Nc2c(F)cccc2Cl)c(CC(=O)O)c1 | 0.777 ± 0.075 | 0.981 ± 0.061
Cc1oncc1C(=O)Nc1ccc(C(F)(F)F)cc1 | 0.987 ± 0.052 | 0.73 ± 0.24
O=C(O)c1cccnc1Nc1cccc(C(F)(F)F)c1 | 0.961 ± 0.044 | 1.08 ± 0.055
CC(CCc1ccccc1)NCC(O)c1ccc(O)c(C(N)=O)c1 (stereo unspecified) | 1.1 ± 0.07 | 1.08 ± 0.3
CCOC(=O)[C@H](CCc1ccccc1)N[C@@H](C)C(=O)N1Cc2ccccc2C[C@H]1C(=O)O | 0.989 ± 0.028 | 0.958 ± 0.042
Cc1onc(-c2c(Cl)cccc2Cl)c1C(=O)N[C@@H]1C(=O)N2[C@@H]1SC(C)(C)[C@@H]2C(=O)O | 1.03 ± 0.048 | 1.04 ± 0.046
CN1C(C)(C)CCCC1(C)C | 1.02 ± 0.025 | 0.824 ± 0.14
C[N+](C)(C)CCCCCC[N+](C)(C)C | 1.04 ± 0.016 | 0.887 ± 0.077

Structure (SMILES) | normalized intracellular growth (time point: T3 (3 h)) | normalized intracellular growth (time point: Tfinal (~6 h))
CN(C)/N=N/c1[nH]cnc1C(N)=O | 1 ± 0.039 | 0.863 ± 0.23
Cc1cc2c(cc1S(N)(=O)=O)S(=O)(=O)CCC2 | 1.02 ± 0.061 | 0.98 ± 0.043
CC1(C)S[C@@H]2[C@H](NC(=O)[C@H](NC(=O)N3CCNC3=O)c3ccccc3)C(=O)N2[C@H]1C(=O)O | 1.14 ± 0.047 | 1.1 ± 0.028
NC(=O)c1cc[n+](CC2=C(C(=O)O)N3C(=O)[C@@H](NC(=O)[C@@H](c4ccccc4)S(=O)(=O)[O-])[C@H]3SC2)cc1 | 0.999 ± 0.056 | 1.05 ± 0.028
CC(C)c1ccc2oc3nc(N)c(C(=O)O)cc3c(=O)c2c1 | 1.016 ± 0.0075 | 0.794 ± 0.13
CCCCCCCCCc1ccc(OCCOCCOCCOCCOCCOCCOCCOCCOCCO)cc1 | 0.99 ± 0.013 | 1.1 ± 0.048
COC(=O)Nc1nc2cc(C(=O)c3ccccc3)ccc2[nH]1 | 0.995 ± 0.036 | 1.03 ± 0.076
CCCCCCc1ccc(O)cc1O.Nc1c2ccccc2nc2ccccc12 | 0.891 ± 0.014 | 1.07 ± 0.012
CC(=O)Nc1ccccc1 | 1 ± 0.046 | 1.12 ± 0.057
CSc1ccc2c(c1)C(N1CCN(C)CC1)Cc1ccccc1S2 (stereo unspecified) | 0.949 ± 0.051 | 0.886 ± 0.094
C[C@H]1COc2c(C3(N)CC3)c(F)cc3c(=O)c(C(=O)O)cn1c23 | 1.36 ± 0.11 | 0.00812 ± 0.0004
CC(C(=O)O)c1ccc2c(c1)Cc1cccnc1O2 (stereo unspecified) | 0.949 ± 0.049 | 1.01 ± 0.12
C[N+]1(C)[C@@H]2CC[C@H]1C[C@@H](OC(=O)C(O)c1ccccc1)C2 (stereo partly specified) | 0.968 ± 0.056 | 1.06 ± 0.025
COC(=O)C1=C(C)NC(C)=C(C(=O)OCCN2CCN(C(c3ccccc3)c3ccccc3)CC2)C1c1cccc([N+](=O)[O-])c1 (stereo unspecified) | 0.991 ± 0.037 | 0.829 ± 0.1
CC(C)(C(=O)O)c1ccc(C(O)CCCN2CCC(C(O)(c3ccccc3)c3ccccc3)CC2)cc1 (stereo unspecified) | 1.06 ± 0.075 | 1.2 ± 0.059
CN(C)CCCN1c2ccccc2Sc2ccccc21 | 1.03 ± 0.043 | 1.05 ± 0.096
NC(Cc1ccc(Cl)cc1)C(=O)O (stereo unspecified) | 0.99 ± 0.05 | 0.945 ± 0.1
Cc1cc(C(C)(C)C)c(O)c(C)c1CC1=NCCN1 | 1 ± 0.044 | 1.21 ± 0.048
CC1(C)[C@H](C(=O)O)N2C(=O)C[C@H]2S1(=O)=O | 0.918 ± 0.03 | 0.937 ± 0.22
COc1cc2c3cc1Oc1cc(ccc1O)C[C@@H]1c4c(cc(OC)c(O)c4Oc4ccc(cc4)C[C@@H]3N(C)CC2)CC[N+]1(C)C | 0.937 ± 0.083 | 0.976 ± 0.16
Cc1ncc(CO)c(CO)c1O | 1.106 ± 0.011 | 1.03 ± 0.31
COc1cc(C(=O)NCCCCCC(=O)O)cc(OC)c1OC | 1.07 ± 0.07 | 1.11 ± 0.1
CC1=C(C(=O)O)N2C(=O)[C@@H](NC(=O)[C@H](N)C3=CCC=CC3)[C@H]2SC1 | 1.02 ± 0.06 | 1.11 ± 0.047
N[C@@H](CCC(=O)N[C@@H](CS)C(=O)NCC(=O)O)C(=O)O | 1.1 ± 0.056 | 0.832 ± 0.11
CC1=C(/C=C/C(C)=C/C=C/C(C)=C/C(=O)O)C(C)(C)CCC1 | 0.976 ± 0.11 | 0.943 ± 0.16
NC[C@@H]1CC[C@@H](N)[C@@H](O[C@H]2[C@H](O)[C@@H](O[C@H]3O[C@H](CO)[C@@H](O)[C@H](N)[C@H]3O)[C@H](N)C[C@@H]2N)O1 | 1.04 ± 0.023 | 0.976 ± 0.13

Structure (SMILES) | normalized intracellular growth (time point: T3 (3 h)) | normalized intracellular growth (time point: Tfinal (~6 h))
CC(=O)Oc1ccccc1C(=O)O | 1.04 ± 0.035 | 1 ± 0.13
N=C(N)NS(=O)(=O)c1ccc(N)cc1 | 0.962 ± 0.042 | 0.991 ± 0.12
COc1cc2nc(N(C)CCCNC(=O)C3CCCO3)nc(N)c2cc1OC (stereo unspecified) | 0.981 ± 0.046 | 1.24 ± 0.12
Clc1ccc(Cn2c(CN3CCCC3)nc3ccccc32)cc1 | 0.966 ± 0.019 | 1.1 ± 0.071
CCCCCCCCCCCCCCCC(=O)OC[C@@H](NC(=O)C(Cl)Cl)[C@H](O)c1ccc([N+](=O)[O-])cc1 | 1.04 ± 0.037 | 0.822 ± 0.14
N[C@@H]1CONC1=O | 0.986 ± 0.043 | 1.04 ± 0.044
CCCCC(CC)CCC(CC(C)C)OS(=O)(=O)O (stereo unspecified) | 1.03 ± 0.031 | 1.1 ± 0.03
O=C(O)COCCN1CCN(C(c2ccccc2)c2ccc(Cl)cc2)CC1 (stereo unspecified) | 1 ± 0.012 | 0.918 ± 0.11
O=C1c2ccccc2C(=O)C1c1ccc(Cl)cc1 | 1 ± 0.04 | 0.857 ± 0.16
COc1ccc2cc([C@H](C)CO)ccc2c1 | 0.984 ± 0.03 | 1.14 ± 0.21
C#C[C@]1(OC(C)=O)CC[C@H]2[C@@H]3CCC4=CC(=NO)CC[C@@H]4[C@H]3CC[C@@]21CC (mixture of isomers) | 1.04 ± 0.056 | 0.943 ± 0.18
Clc1ccc(CO/N=C(\Cn2ccnc2)c2ccc(Cl)cc2Cl)c(Cl)c1 | 0.997 ± 0.045 | 1.3 ± 0.12
CC(=O)O[C@]1(C(C)=O)CC[C@H]2[C@@H]3C=C(Cl)C4=CC(=O)[C@@H]5C[C@@H]5[C@]4(C)[C@H]3CC[C@@]21C | 0.992 ± 0.096 | 1.14 ± 0.14
Nc1ncnc2c1ncn2[C@@H]1O[C@H](CO)[C@@H](O)[C@H]1O | 0.958 ± 0.081 | 1.05 ± 0.13
Clc1ccc(CSC(Cn2ccnc2)c2ccc(Cl)cc2Cl)cc1 (stereo unspecified) | 1.03 ± 0.05 | 1.03 ± 0.14
C[n+]1cc2c3c(ccc2c2ccc4cc5c(cc4c21)OCO5)OCO3 | 0.702 ± 0.079 | 0.75 ± 0.03
CN(C)CCN(Cc1ccccc1)c1ccccn1 | 0.989 ± 0.058 | 1.02 ± 0.16
C=CC1=C(C)c2cc3[nH]c(cc4nc(cc5[nH]c(cc1n2)c(C)c5CCC(=O)O)C(CCC(=O)O)=C4C)c(C)c3C=C | 0.973 ± 0.046 | 1.03 ± 0.14
CN1C(=O)CC(c2ccccc2)C1=O (stereo unspecified) | 1.04 ± 0.05 | 1.07 ± 0.11
CC(=O)O[C@@]12CO[C@@H]1C[C@H](O)[C@@]1(C)C(=O)[C@H](O)C3=C(C)[C@@H](OC(=O)[C@H](O)[C@@H](NC(=O)OC(C)(C)C)c4ccccc4)C[C@@](O)([C@@H](OC(=O)c4ccccc4)[C@H]21)C3(C)C | 0.978 ± 0.011 | 0.862 ± 0.053
COc1cc(O)c(C(=O)c2ccccc2)cc1S(=O)(=O)O | 0.99 ± 0.044 | 1.01 ± 0.11
N[C@@H](Cc1cc(I)c(Oc2cc(I)c(O)c(I)c2)c(I)c1)C(=O)O | 0.839 ± 0.077 | 1.12 ± 0.12
CCCCCCCCCC(=O)N[C@@H](Cc1c[nH]c2ccccc12)C(=O)N[C@@H](CC(N)=O)C(=O)N[C@@H](CC(=O)O)C(=O)N[C@@H]1C(=O)NCC(=O)N[C@@H](CCCN)C(=O)N[C@@H](CC(=O)O)C(=O)N[C@H](C)C(=O)N[C@@H](CC(=O)O)C(=O)NCC(=O)N[C@H](CO)C(=O)N[C@@H]([C@H](C)CC(=O)O)C(=O)N[C@@H](CC(=O)c2ccccc2N)C(=O)O[C@@H]1C [DAPTOMYCIN (5 millimolar/DMSO)] | 1.01 ± 0.07 | 0.98 ± 0.21
N=C(N)NC(=O)Cc1c(Cl)cccc1Cl | 1.14 ± 0.079 | 0.853 ± 0.29
CN(C)CC/C=C1/c2ccccc2Sc2ccc(Cl)cc21 | 0.999 ± 0.073 | 0.953 ± 0.1
CN(C)CCOC(c1ccccc1)c1ccccc1 | 0.981 ± 0.018 | 1.02 ± 0.03

6 successive records already listed, for reference:
Structure (SMILES) | normalized intracellular growth (time point: T3 (3 h)) | normalized intracellular growth (time point: Tfinal (~6 h))
Cc1ncc(CO)c(CO)c1O | 1.106 ± 0.011 | 1.03 ± 0.31
COc1cc(C(=O)NCCCCCC(=O)O)cc(OC)c1OC | 1.07 ± 0.07 | 1.11 ± 0.1
CC1=C(C(=O)O)N2C(=O)[C@@H](NC(=O)[C@H](N)C3=CCC=CC3)[C@H]2SC1 | 1.02 ± 0.06 | 1.11 ± 0.047
N[C@@H](CCC(=O)N[C@@H](CS)C(=O)NCC(=O)O)C(=O)O | 1.1 ± 0.056 | 0.832 ± 0.11
CC1=C(/C=C/C(C)=C/C=C/C(C)=C/C(=O)O)C(C)(C)CCC1 | 0.976 ± 0.11 | 0.943 ± 0.16
NC[C@@H]1CC[C@@H](N)[C@@H](O[C@H]2[C@H](O)[C@@H](O[C@H]3O[C@H](CO)[C@@H](O)[C@H](N)[C@H]3O)[C@H](N)C[C@@H]2N)O1 | 1.04 ± 0.023 | 0.976 ± 0.13
